Assay results: patent US20190358182A1, “NOVEL MECHANISM FOR DECREASING OPIOID REWARD” (THE TRUSTEES OF INDIANA UNIVERSITY, priority 2018, published 2019)

Tests used:
rats = details: rat, in vivo
Method: Method: On CPP day 1 and 2, rats are allowed to habituate to the apparatus. On CPP day 3, rats are again allowed to explore the apparatus (30 min) to verify absence of chamber bias. Only rats that fail to show a chamber bias are used for CPP experiments. Rats used for CPP are injected (i.p.) with test drug (day 4, 6 and 8) prior to placement in the drug-paired chamber. On alternate days (day 5, 7 and 9), rats receive vehicle (i.p.) and are placed in the opposite chamber. Mechanical paw withdrawal thresholds to an electronic von Frey anesthesiometer are measured in duplicate through the grid floor of our custom apparatus before and after each drug pairings to assess possible changes in nociceptive thresholds. Motor behavior is tracked by photobeams. CPP is measured (day 10) in the drug-free state.
This study requires 19 groups of rats evaluated using a conditioned place preference approach. In the same animals we measure responsiveness to punctuate mechanical stimulation with an electrovonfrey anesthesiometer (Rahn et al. (2014) Molecular Pain 2014, 10:27 DOI: 10.1186/1744-8069-10-27) before and after all drug or vehicle pairings. […] Compounds are tested under blinded conditions. […] N=190: This number reflects testing of 19 cohorts of 10 rats.

DA efflux in NAc shell = experiment: Fast-scan cyclic voltammetry of electrically evoked DA in NAc shell; assay type: in vivo, rat; details: medial forebrain bundle stimulation; morphine 6 mg/kg i.p.; ZL006 10 mg/kg i.p.; FIG. 7A, 7B
Description: Design and Rationale: Although FSCV can record spontaneously occurring DA transients in behaving animals, the anesthetized preparation is preferred because it provides reliable and reproducible DA signals independent of behavioral activity. In fact, the fluctuating and intermittent nature of behavior-related DA signals (e.g.,) could confound efforts to establish a first-ever characterization of PSD95-nNOS disrupters on DA dynamics. […] Rats are fixed in a stereotaxic frame, and a carbon-fiber working electrode (6 μm diameter) is lowered into NAc shell. A bipolar stimulating electrode is lowered over the ipsilateral MFB to evoke endogenous DA release. An Ag/AgCl reference is placed on the contralateral cortex. […] Voltammograms are obtained every 100 ms at a scan rate of 400 v/s.
The basic design is to collect baseline DA signals (30 min) evoked by MFB stimulation, administer (ip) test drug(s) or vehicle, and collect post-administration evoked DA signals. […] The effects of each compound (injected i.p.) will be monitored for at least 60 min and tested in separate groups of rats (n=10/group). […]
Stimulations at 60 Hz are applied every 2 min to ensure renewal of the readily releasable DA pool. […] [DA]p and Vmax are determined by the above equation in combination with curve-fitting software that incorporates a simplex minimization algorithm.

O=C(O)c1ccc(NCc2cc(Cl)cc(Cl)c2O)cc1O [ZL006]
CPP or aversion in the absence of morphine (rats): will not produce either CPP or aversion

CN1CC[C@]23c4c5ccc(O)c4O[C@H]2[C@@H](O)C=C[C@H]3[C@H]1C5 [morphine, reference compound]
evoked dopamine (DA) efflux, drug alone (DA efflux in NAc shell): produces robust dopamine efflux
